Taken from: PubChem BioAssay AID652243 (Drosophila RNAi Screening Center, 2013)
In all, the deposit lists about 24,000 reagents; below is an unselected part of those that have a named target and a result. In the full data, 246 (1%) are marked active. 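Plates not normalised; calls are printed but the firefly/Renilla ratio behind them is not deposited; fold cut for lowering reported inconsistently.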 Raw values vary from plate to plate and are shown uncorrected. Unmarked entries are inactive. A plus sign joins genes that one reagent is predicted to hit. Not stated in the record: the amount of reagent.

- Aim: 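Knock-downs that decrease or increase androgen receptor reporter signal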 (primary screen)
- System: Drosophila S2R+ cells
- Knock-down reagent: long dsRNA against Drosophila genes
- Time to read-out: 72 h (48 h, then 24 h hormone)
- Challenge: synthetic androgen R1881 at 10 nM for 24 h
- Measured: 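Firefly light from an androgen-responsive reporter and Renilla control light per well, raw and unnormalised, for each of two replicates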
- Direction: firefly reporter light: higher = more light from androgen-responsive reporter; Renilla control light: higher = more constitutive control signal (cell number, transfection)
- Call rule: 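Across duplicate plates, a knock-down whose log firefly/Renilla ratio shifted a set fold down or up from the GFP/LacZ control mean was a hit; the downward cut appears as both 1.5 and 3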
- Meaning of the calls: active = hit: reporter lowered or raised; inactive = no hit

| gene | dsRNA | firefly reporter light, replicate 1 | firefly reporter light, replicate 2 | Renilla control light, replicate 1 | Renilla control light, replicate 2 |
| --- | --- | --- | --- | --- | --- |
| CG4701 (GeneID 34858) | DRSC01952 | 1.09e5 | 1.15e5 | 1.36e6 | 1.27e6 |
| Ho (GeneID 41407) | DRSC14939 | 87619 | 66066 | 5.07e5 | 5.93e5 |
| Zw (GeneID 32974) | DRSC20303 | 81956 | 88514 | 3.91e5 | 4.60e5 |
| Zw (GeneID 32974) | DRSC27667 | 4.81e5 | 2.71e5 | 5.46e5 | 5.37e5 |
| VAChT + ChAT | DRSC13312 | 93885 | 1.60e5 | 2.84e5 | 3.52e5 |
| knk (GeneID 47137) | DRSC15993 | 1.42e5 | 1.57e5 | 1.42e6 | 2.35e6 |
| CG11670 (GeneID 41608) | DRSC14342 | 68712 | 55646 | 9.86e5 | 9.85e5 |
| stw (GeneID 35494) | DRSC04842 | 4.43e5 | 3.56e5 | 1.78e6 | 1.61e6 |
| stw (GeneID 35494) | DRSC04843 | 4.56e5 | 3.81e5 | 1.87e6 | 1.92e6 |
| stw (GeneID 35494) | DRSC22527 | 7.11e5 | 6.40e5 | 3.07e5 | 2.51e5 |
| stw (GeneID 35494) | DRSC26018 | 4.56e5 | 4.19e5 | 7.72e5 | 7.41e5 |
| CG17378 (GeneID 33951) | DRSC02616 | 1.74e5 | 2.20e5 | 1.46e6 | 1.51e6 |
| Gyc89Da (GeneID 42001) | DRSC15008 | 2.22e5 | 1.78e5 | 2.67e6 | 3.07e6 |

Part of the list above, set out differently.
gene,dsRNA,"firefly reporter light, replicate 1","firefly reporter light, replicate 2","Renilla control light, replicate 1","Renilla control light, replicate 2"
VAChT + ChAT,DRSC13312,93885,1.60e5,2.84e5,3.52e5
knk (GeneID 47137),DRSC15993,1.42e5,1.57e5,1.42e6,2.35e6

The results go on.
| gene | dsRNA | firefly reporter light, replicate 1 | firefly reporter light, replicate 2 | Renilla control light, replicate 1 | Renilla control light, replicate 2 |
| --- | --- | --- | --- | --- | --- |
| CG13539 (GeneID 37680) | DRSC04181 | 1.87e5 | 2.17e5 | 1.19e6 | 1.39e6 |
| CG13539 (GeneID 37680) | DRSC28683 | 5.63e5 | 4.24e5 | 1.60e6 | 1.48e6 |
| PGRP-LA (GeneID 39062) | DRSC10327 | 2.89e5 | 2.22e5 | 2.45e6 | 2.22e6 |
| PGRP-LA (GeneID 39062) | DRSC10414 | 2.63e5 | 2.04e5 | 3.31e6 | 2.07e6 |
| unc80 (GeneID 43324) | DRSC15329 | 2.24e5 | 2.15e5 | 2.46e6 | 2.65e6 |
| bumpel (GeneID 41368) | DRSC16100 | 1.21e5 | 1.44e5 | 2.28e6 | 2.71e6 |
| Pdh (GeneID 39812) | DRSC11249 | 80871 | 67526 | 1.31e6 | 7.32e5 |
| Pdh (GeneID 39812) | DRSC26995 | 3.43e5 | 2.98e5 | 9.19e5 | 6.39e5 |
| Eig71Ea (GeneID 39700) | DRSC11148 | 2.84e5 | 2.22e5 | 2.96e6 | 2.67e6 |
| CG13713 (GeneID 59233) | DRSC08322 | 1.85e5 | 1.70e5 | 1.91e6 | 2.42e6 |
| CG14132 (GeneID 50290) | DRSC10136 | 2.12e5 | 2.21e5 | 2.05e6 | 2.98e6 |
